The list shows a part of the results. The data scatter; read single values as rough.
Legend:
[1] = compound: ClCC(=O)N[C@@H]1CCCc2ccccc12; test: log2 mean competition ratio of IA-DTB cysteine labelling (DMSO/compound) (log2 ratio); higher = stronger cysteine engagement by compound; details: treatment time: 4 h, cell line lysate: HEK293T
Experimental: (§1)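 IA-DTB competitive cysteine chemoproteomics in HEK293T RIPA lysate. Lysates were treated with compound 29 or 30 at 50 or 200 µM for 4 h, then IA-DTB (500 µM, 1 h), trypsin-digested, NeutrAvidin-enriched and analysed by diaPASEF. Competition ratio = intensity DMSO / intensity compound (n=4 treated, n=64 DMSO); binding: mean log2 CR ≥ 1 and p ≤ 0.05 plus QC filters. Target is the cysteine site.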

By UniProt entry, the sequences of proteins in these tests, tags left out. Where a name states a change or a piece, a line headed by the entry shows the natural chain unless it says otherwise. Residues count along the entry.
UniProt Q86Y13: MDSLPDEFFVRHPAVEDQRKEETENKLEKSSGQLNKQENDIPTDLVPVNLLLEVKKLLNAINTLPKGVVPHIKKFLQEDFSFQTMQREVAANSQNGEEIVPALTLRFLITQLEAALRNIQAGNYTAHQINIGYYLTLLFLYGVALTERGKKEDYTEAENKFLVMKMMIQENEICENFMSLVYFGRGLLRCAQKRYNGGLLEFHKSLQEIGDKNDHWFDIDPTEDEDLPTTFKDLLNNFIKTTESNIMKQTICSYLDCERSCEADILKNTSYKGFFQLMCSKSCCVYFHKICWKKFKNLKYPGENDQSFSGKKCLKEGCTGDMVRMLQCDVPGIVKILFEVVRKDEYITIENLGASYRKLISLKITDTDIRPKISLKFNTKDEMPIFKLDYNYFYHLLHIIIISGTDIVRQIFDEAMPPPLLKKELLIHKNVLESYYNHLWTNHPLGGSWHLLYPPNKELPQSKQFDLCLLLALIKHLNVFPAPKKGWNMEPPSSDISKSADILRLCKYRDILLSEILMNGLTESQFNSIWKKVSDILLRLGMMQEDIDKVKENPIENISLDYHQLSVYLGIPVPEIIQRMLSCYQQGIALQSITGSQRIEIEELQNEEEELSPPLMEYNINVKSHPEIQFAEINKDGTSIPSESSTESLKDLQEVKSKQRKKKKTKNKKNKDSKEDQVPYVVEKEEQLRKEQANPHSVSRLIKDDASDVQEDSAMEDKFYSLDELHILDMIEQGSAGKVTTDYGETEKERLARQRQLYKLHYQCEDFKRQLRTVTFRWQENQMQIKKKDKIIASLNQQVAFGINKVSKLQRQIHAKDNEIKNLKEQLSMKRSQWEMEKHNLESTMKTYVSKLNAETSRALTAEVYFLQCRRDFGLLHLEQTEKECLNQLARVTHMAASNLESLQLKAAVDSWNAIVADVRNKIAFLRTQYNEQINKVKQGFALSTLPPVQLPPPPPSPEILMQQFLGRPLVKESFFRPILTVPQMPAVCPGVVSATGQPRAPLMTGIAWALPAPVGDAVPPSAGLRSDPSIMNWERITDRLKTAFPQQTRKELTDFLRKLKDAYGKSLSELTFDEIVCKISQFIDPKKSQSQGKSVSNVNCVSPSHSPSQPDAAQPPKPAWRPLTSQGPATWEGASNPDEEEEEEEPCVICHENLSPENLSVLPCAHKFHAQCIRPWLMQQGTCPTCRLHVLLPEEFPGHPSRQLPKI
UniProt P15924: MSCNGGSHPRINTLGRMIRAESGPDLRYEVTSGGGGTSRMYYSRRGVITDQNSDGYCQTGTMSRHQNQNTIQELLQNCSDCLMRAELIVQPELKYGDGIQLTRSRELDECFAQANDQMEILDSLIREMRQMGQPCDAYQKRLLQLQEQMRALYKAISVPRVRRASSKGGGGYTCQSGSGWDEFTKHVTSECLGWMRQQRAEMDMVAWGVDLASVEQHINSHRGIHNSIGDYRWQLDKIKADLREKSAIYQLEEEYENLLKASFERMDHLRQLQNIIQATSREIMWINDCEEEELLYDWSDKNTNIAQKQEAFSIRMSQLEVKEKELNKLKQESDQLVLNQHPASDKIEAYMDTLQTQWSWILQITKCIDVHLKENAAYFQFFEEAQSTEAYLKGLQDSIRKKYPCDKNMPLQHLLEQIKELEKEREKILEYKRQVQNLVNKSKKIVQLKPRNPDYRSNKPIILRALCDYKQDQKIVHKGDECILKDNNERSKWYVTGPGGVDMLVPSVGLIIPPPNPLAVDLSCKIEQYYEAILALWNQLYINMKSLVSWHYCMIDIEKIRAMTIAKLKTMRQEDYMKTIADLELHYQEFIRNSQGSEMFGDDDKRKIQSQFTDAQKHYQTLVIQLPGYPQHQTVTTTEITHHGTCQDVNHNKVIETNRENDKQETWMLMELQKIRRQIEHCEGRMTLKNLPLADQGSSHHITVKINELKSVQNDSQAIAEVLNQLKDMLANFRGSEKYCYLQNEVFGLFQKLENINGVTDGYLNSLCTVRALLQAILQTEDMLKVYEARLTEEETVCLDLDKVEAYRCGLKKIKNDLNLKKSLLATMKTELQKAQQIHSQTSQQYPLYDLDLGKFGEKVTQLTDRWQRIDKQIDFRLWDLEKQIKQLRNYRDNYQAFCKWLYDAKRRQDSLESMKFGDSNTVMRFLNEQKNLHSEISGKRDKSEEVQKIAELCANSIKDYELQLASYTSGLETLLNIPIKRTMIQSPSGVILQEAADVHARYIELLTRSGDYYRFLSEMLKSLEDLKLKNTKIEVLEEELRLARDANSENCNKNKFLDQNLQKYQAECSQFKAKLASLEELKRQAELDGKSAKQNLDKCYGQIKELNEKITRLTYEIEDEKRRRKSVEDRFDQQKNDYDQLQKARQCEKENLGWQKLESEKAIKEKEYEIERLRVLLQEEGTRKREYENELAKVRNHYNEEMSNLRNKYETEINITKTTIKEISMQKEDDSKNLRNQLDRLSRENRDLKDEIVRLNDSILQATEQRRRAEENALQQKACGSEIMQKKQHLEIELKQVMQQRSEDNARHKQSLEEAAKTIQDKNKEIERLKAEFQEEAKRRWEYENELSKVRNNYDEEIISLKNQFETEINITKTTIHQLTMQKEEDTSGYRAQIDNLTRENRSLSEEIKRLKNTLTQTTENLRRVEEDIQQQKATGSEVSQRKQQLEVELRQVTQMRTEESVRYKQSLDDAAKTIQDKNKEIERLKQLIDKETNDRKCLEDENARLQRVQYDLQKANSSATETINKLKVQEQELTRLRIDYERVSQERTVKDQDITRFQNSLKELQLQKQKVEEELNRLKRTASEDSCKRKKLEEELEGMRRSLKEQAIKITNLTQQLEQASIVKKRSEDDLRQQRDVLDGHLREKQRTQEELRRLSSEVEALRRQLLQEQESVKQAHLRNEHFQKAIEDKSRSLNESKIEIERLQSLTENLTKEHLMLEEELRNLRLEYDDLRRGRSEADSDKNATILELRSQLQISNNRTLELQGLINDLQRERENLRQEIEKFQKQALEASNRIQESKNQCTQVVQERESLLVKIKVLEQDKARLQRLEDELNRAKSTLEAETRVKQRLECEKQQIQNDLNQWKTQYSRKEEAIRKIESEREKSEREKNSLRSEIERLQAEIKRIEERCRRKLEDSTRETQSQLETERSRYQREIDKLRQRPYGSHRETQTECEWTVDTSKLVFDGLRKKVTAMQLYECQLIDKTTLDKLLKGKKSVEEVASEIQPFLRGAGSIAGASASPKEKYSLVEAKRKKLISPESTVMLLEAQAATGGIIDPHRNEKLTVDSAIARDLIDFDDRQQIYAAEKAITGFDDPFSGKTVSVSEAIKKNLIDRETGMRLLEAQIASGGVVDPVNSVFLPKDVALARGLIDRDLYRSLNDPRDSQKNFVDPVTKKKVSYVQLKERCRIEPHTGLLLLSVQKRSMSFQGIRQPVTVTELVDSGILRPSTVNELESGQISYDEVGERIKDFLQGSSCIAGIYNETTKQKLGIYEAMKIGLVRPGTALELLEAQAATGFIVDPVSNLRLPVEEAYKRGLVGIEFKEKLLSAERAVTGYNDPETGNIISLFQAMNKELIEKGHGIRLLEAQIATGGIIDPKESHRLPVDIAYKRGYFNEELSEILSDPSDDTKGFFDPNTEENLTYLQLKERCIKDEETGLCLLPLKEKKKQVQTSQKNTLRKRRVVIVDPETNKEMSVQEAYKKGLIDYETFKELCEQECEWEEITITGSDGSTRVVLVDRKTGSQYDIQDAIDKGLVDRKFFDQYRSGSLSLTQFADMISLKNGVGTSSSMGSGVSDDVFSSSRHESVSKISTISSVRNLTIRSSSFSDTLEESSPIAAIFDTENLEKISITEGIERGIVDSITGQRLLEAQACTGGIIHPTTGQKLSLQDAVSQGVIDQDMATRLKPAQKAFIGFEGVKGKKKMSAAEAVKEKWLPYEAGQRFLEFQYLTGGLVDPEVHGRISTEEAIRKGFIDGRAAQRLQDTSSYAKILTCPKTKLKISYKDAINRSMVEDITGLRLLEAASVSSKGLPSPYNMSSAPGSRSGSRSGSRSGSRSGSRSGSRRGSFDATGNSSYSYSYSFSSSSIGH
UniProt Q13541: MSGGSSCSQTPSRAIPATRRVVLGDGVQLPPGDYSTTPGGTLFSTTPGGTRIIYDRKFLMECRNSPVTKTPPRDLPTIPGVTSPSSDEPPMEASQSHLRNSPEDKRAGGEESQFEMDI
UniProt P55199: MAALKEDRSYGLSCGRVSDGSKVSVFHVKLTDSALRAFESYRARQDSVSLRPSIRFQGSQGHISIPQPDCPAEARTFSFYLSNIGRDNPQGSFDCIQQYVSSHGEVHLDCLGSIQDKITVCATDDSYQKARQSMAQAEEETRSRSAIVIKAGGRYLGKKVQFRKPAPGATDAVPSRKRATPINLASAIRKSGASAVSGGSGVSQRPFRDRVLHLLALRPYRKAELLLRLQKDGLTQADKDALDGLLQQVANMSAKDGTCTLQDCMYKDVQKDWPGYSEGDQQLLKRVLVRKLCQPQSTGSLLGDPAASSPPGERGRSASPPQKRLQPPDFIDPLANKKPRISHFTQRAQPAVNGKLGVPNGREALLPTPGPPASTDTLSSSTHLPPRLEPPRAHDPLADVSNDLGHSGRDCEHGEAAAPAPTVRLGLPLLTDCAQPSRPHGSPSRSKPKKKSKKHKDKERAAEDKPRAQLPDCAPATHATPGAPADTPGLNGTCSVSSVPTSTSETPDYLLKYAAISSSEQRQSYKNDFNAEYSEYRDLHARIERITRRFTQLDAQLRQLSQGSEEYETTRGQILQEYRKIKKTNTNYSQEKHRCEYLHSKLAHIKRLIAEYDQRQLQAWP
UniProt Q6P1R4: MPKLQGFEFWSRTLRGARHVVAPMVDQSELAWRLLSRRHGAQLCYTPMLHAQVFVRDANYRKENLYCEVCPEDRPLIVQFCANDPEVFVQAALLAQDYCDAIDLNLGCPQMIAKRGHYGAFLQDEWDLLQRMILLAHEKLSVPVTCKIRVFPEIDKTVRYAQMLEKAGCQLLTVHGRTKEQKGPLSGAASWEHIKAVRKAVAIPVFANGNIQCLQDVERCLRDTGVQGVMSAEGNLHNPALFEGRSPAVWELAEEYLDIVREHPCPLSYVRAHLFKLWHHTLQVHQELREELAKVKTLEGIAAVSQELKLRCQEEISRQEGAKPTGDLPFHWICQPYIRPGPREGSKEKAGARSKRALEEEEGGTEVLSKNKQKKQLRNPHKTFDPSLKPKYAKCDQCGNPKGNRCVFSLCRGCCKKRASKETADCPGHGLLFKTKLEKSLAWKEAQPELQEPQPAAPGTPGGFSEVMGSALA
UniProt Q9H410: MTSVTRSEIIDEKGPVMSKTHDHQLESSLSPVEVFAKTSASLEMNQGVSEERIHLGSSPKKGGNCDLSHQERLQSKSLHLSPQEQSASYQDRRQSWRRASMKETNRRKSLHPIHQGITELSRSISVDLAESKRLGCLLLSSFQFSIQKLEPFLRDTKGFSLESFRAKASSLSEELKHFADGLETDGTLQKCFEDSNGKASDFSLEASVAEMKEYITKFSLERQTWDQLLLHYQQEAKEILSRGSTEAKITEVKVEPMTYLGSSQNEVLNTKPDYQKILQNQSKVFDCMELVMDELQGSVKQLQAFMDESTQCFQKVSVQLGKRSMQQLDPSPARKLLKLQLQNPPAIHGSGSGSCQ
UniProt Q9H8V3: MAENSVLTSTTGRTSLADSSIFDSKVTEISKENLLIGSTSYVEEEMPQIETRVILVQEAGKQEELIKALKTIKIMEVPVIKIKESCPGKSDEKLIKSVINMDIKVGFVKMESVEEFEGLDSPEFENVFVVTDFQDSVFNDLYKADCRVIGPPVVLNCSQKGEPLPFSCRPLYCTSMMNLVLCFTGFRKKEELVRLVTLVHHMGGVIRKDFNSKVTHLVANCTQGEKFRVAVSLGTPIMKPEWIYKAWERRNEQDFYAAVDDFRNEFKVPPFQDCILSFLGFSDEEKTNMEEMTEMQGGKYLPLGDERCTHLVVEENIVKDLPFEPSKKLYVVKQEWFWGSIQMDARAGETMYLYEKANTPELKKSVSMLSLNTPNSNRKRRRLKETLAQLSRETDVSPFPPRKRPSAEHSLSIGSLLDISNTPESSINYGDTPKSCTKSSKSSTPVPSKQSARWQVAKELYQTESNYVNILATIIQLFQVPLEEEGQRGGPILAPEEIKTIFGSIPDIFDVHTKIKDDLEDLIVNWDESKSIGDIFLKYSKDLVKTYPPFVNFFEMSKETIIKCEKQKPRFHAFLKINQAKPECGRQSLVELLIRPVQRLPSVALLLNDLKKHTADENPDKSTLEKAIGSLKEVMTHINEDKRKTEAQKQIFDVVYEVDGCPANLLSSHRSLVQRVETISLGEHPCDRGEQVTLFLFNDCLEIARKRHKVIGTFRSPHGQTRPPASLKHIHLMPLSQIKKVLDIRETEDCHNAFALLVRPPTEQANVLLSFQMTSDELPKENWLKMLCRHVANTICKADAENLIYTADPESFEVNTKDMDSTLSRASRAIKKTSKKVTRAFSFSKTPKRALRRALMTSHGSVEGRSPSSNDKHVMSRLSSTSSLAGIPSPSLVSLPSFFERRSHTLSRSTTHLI
UniProt Q14204, 2119-2148: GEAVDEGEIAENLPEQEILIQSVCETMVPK

[2] = compound: ClCC(=O)N[C@H]1CCCc2ccccc12; test: as above; details: treatment time: 4 h, cell line lysate: HEK293T
Experimental: as §1

Target | log2 mean competition ratio ([1]; 50 µM) | log2 mean competition ratio ([1]; 200 µM) | log2 mean competition ratio ([2]; 50 µM) | log2 mean competition ratio ([2]; 200 µM)
DZIP3 C1078 (UniProt Q86Y13) | 0.0577 | -0.109 | -0.147 | 0.00854
DSP C174 (UniProt P15924) | 0.0137 | 0.108 | 0.0183 | 0.247
EIF4EBP1 C7 (UniProt Q13541) | -0.019 | 0.0536 | 0.218 | 0.275
EIF3C C480 (UniProt Q99613) | -0.208 | -0.0138 | -0.176 | -0.337
DYNC2H1 C1915 (UniProt Q8NCM8) | 0.0515 | -0.0729 | 0.0664 | -0.14
ELL C14 (UniProt P55199) | 0.11 | 0.00767 | 0.376 | 0.0998
DUSP12 C11 | -0.15 | 0.212 | 0.587 | 0.374
DUS1L C426 (UniProt Q6P1R4) | 0.233 | 0.0901 | -0.603 | -0.122
EBF3 C161 | -0.0144 | 0.506 | 0.703 | 0.227
EIF4G3 C461 | -0.114 | -0.233 | 0.181 | -0.106
DSN1 C191 (UniProt Q9H410) | -0.0788 | 0.0894 | -0.134 | 0.18
DUS2 C475 (UniProt Q9NX74) | -0.0461 | 0.136 | -0.146 | 0.166
DYNC2H1 C1104 (UniProt Q8NCM8) | 0.354 | -0.202 | 0.225 | -0.205
EIF3C C500 (UniProt Q99613) | -0.28 | -0.0114 | -0.126 | 0.12
EIF4EBP1 C62 (UniProt Q13541) | 0.125 | 0.275 | 0.131 | 0.364
DYNC2I1 C1047 | 0.00067 | 0.382 | 0.108 | 0.353
DSC3 C814 | -0.162 | 0.308 | -0.148 | 0.237
EIF5B C853 (UniProt O60841) | -0.128 | -0.153 | -0.0942 | -0.193
DSP C482 (UniProt P15924) | 0.154 | -0.0838 | -0.0508 | -0.246
ELL2 C308 | -0.152 | -0.0925 | -0.229 | 0.115
E2F4 C88 (UniProt Q16254) | -0.0745 | -0.00362 | 0.059 | -0.0651
EIF2S2 C309 (UniProt P20042) | 0.127 | -0.0399 | 0.291 | -0.0291
DYNC2I1 C57 | -0.24 | 0.178 | -0.375 | 0.274
EIF2S3B C269 | -0.0996 | -0.139 | -0.321 | -0.278

Target | log2 mean competition ratio ([1]; 50 µM) | log2 mean competition ratio ([1]; 200 µM) | log2 mean competition ratio ([2]; 50 µM) | log2 mean competition ratio ([2]; 200 µM)
DSG2 C580 (UniProt Q14126) | -0.186 | 0.0775 | 0.149 | 0.272
DSTN C80 (UniProt P60981) | -0.057 | -0.175 | -0.484 | -0.385
EIF2S3B C348 | -0.24 | -0.0737 | 0.423 | 0.148
DSN1 C65 (UniProt Q9H410) | -0.0135 | -0.185 | 0.0351 | -0.0911
DSP C1280 (UniProt P15924) | -0.0988 | 0.00896 | -0.156 | -0.0137
EIF2S1 C98 (UniProt P05198) | 0.0516 | -0.304 | 0.185 | -0.273
ELF2 C591 (UniProt Q15723) | -0.175 | -0.249 | 0.437 | 0.103
ECI2 C77 (UniProt O75521) | -0.0316 | 0.542 | -0.164 | 0.327
DSC2 C418 (UniProt Q02487) | 0.0663 | -0.436 | -0.245 | 0.202
DSP C1052 (UniProt P15924) | -0.0773 | 0.642 | -0.124 | 0.179
EIF3K C190 (UniProt Q9UBQ5) | 0.11 | -0.308 | 0.884 | -0.382
DSC3 C792 | -0.0976 | 0.119 | -0.107 | 0.241
EIF2S2 C226 (UniProt P20042) | -0.0173 | -0.167 | -0.0771 | 0.0416
EFR3A C767 (UniProt Q14156) | -0.214 | 0.0535 | -0.472 | -0.00469
ECT2 C686 (UniProt Q9H8V3) | -0.0922 | 0.0496 | 0.109 | 0.119
EEF1B2 C161 (UniProt P24534) | 0.414 | 0.397 | 0.594 | 0.381
DTNA C197 | -0.037 | 0.00926 | 0.166 | 0.173
EIF4G1 C1516 (UniProt Q04637) | -0.181 | -0.333 | 0.0849 | -0.349
EEFSEC C442 (UniProt P57772) | 0.0453 | -0.00893 | 0.0258 | 0.00154
DYNC1H1 C2142 (UniProt Q14204) | -0.226 | -0.406 | -0.0413 | 0.0461
EIF1AD C89 (UniProt Q8N9N8) | 0.772 | 0.339 | 0.616 | 0.19
DSTN C23 (UniProt P60981) | -0.0736 | -0.309 | 0.0136 | -0.324
DUT C166 | -0.00582 | -0.128 | 0.0971 | -0.0816
EIF2A C306 (UniProt Q9BY44) | 0.084 | 0.00277 | 0.17 | -0.0294

2 records drawn at random from the list so far, as already listed:
Target | log2 mean competition ratio ([1]; 50 µM) | log2 mean competition ratio ([1]; 200 µM) | log2 mean competition ratio ([2]; 50 µM) | log2 mean competition ratio ([2]; 200 µM)
EEF1B2 C161 (UniProt P24534) | 0.414 | 0.397 | 0.594 | 0.381
DSN1 C65 (UniProt Q9H410) | -0.0135 | -0.185 | 0.0351 | -0.0911

— the supplement of paper PMC11732987, “Enantioselective OTUD7B fragment discovery through chemoproteomics screening and high-throughput optimisation” (Communications Chemistry, 2025)
